Data source: PubChem BioAssay AID504795 (Drosophila RNAi Screening Center, 2011)

- Screen: 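Fly genes whose loss alters neurite growth or neural cell form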 (primary screen)
- Cells: primary Drosophila neurons and glia
- Reagent: long dsRNA against Drosophila genes, 250 ng dsRNA per well
- Time to read-out: one week
- Measurement: 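GFP-labelled neurons and glia imaged live by automated microscope one week after 250 ng dsRNA per well; morphology scored by eye as descriptive phenotype terms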
Only reagents picked out of a larger screen are listed. 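Every listed dsRNA shows some phenotype; how reagents were selected for listing is not stated.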 Names joined by + are all predicted targets of the reagent.

phenotype seen, replicate 1 | phenotype seen, replicate 2 | predicted target | amplicon
too many neurite branches | – | CG42697 | DRSC05740
axon bundles split apart | – | CG8249 | DRSC07125
fewer cells | – | sicily | DRSC19704
axon bundles split apart | – | CG12912 | DRSC06227
abnormal cell clusters | – | CG8870 | DRSC16452
abnormal cell clusters | – | faf | DRSC16942
sheet-like cell extensions | – | CG17574 | DRSC06681
reduced axon outgrowth | – | CG15498 | DRSC15040
fewer cells | – | CG13991 | DRSC02323
axon bundles split apart | – | ppk29 | DRSC04205
axon bundles split apart | – | Bmcp | DRSC10808
reduced axon outgrowth | – | COX7AL | DRSC15313
reduced axon outgrowth | axon bundles split apart | pum | DRSC17037
too many neurite branches | – | CG1468 | DRSC17946
axon bundles split apart | – | CG15036 | DRSC17968
abnormal cell clusters | – | CG31678 | DRSC02619

Copied from above for reference:
phenotype seen, replicate 1 | phenotype seen, replicate 2 | predicted target | amplicon
sheet-like cell extensions | – | CG17574 | DRSC06681
reduced axon outgrowth | – | CG15498 | DRSC15040
fewer cells | – | CG13991 | DRSC02323
axon bundles split apart | – | ppk29 | DRSC04205
axon bundles split apart | – | Bmcp | DRSC10808
reduced axon outgrowth | – | COX7AL | DRSC15313
reduced axon outgrowth | axon bundles split apart | pum | DRSC17037

The listing continues.
phenotype seen, replicate 1 | phenotype seen, replicate 2 | predicted target | amplicon
sheet-like cell extensions | – | CG11893 | DRSC14429
sheet-like cell extensions | – | CG3982 | DRSC10394
beaded; swollen axons | – | G9a | DRSC18619
abnormal cell clusters | – | Lim3 | DRSC02475
axon bundles split apart | – | CG12177 | DRSC19437
abnormal cell clusters | – | smog | DRSC00334
axon bundles split apart | – | RpS13 | DRSC03419
abnormal cell clusters | – | Gr22a | DRSC22283
reduced axon outgrowth | – | CG14957 | DRSC08416
too many neurite branches | – | Lint-O | DRSC18468
axon bundles split apart | – | Bcat | DRSC19756
axon bundles split apart | – | RpS8 | DRSC16318
too many neurite branches | – | CG13675 | DRSC10034
beaded; swollen axons | – | Mur29B | DRSC02376
abnormal cell clusters | – | Nuak | DRSC14415
too many neurite branches | – | Nuak | DRSC14416
sheet-like cell extensions | – | bon | DRSC16914
too many neurite branches | – | side | DRSC14717
axon bundles split apart | – | CG18747 | DRSC15384
axon bundles split apart | – | mthl6 | DRSC10234
abnormal cell clusters | – | CG34423 + Mthfs | DRSC04088
reduced axon outgrowth | – | CG3587 | DRSC18541
axon bundles split apart | – | Sap130 | DRSC09680
too many neurite branches | – | br | DRSC17789
too many neurite branches | – | CG10063 | DRSC09688
abnormal cell clusters | – | org-1 | DRSC18810
too many neurite branches | – | CG10638 | DRSC09762
beaded; swollen axons | – | CG8736 | DRSC07255
